# Cleaved PARP after 72 h of treatment

Compounds and concentrations:
cisplatin: N.N.[Cl][Pt][Cl] at 8 µM
docetaxel: CC(=O)O[C@@]12CO[C@@H]1C[C@H](O)[C@@]1(C)C(=O)[C@H](O)C3=C(C)[C@@H](OC(=O)[C@H](O)[C@@H](NC(=O)OC(C)(C)C)c4ccccc4)C[C@@](O)([C@@H](OC(=O)c4ccccc4)[C@H]21)C3(C)C at 0.0005 µM
lapatinib: CS(=O)(=O)CCNCc1ccc(-c2ccc3ncnc(Nc4ccc(OCc5cccc(F)c5)c(Cl)c4)c3c2)o1 at 4 µM
enzastaurin: Cn1cc(C2=C(c3cn(C4CCN(Cc5ccccn5)CC4)c4ccccc34)C(=O)NC2=O)c2ccccc21 at 4 µM
ENMD-2076: Cc1cc(Nc2cc(N3CCN(C)CC3)nc(/C=C/c3ccccc3)n2)n[nH]1 at 0.2 µM
tanespimycin: C=CCNC1=C2C[C@@H](C)C[C@H](OC)[C@H](O)[C@@H](C)/C=C(\C)[C@H](OC(N)=O)[C@@H](OC)/C=C\C=C(/C)C(=O)NC(=CC1=O)C2=O at 0.01 µM
temozolomide: Cn1nnc2c(C(N)=O)ncn2c1=O at 10 µM
KU-55933: O=c1cc(-c2cccc3c2Sc2ccccc2S3)oc(N2CCOCC2)c1 at 5 µM
tipifarnib: Cn1cncc1[C@@](N)(c1ccc(Cl)cc1)c1ccc2c(c1)c(-c1cccc(Cl)c1)cc(=O)n2C at 0.05 µM

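Human melanoma cells were exposed to a pair of drugs for 72 h in 1,536-well plates and read by automated microscopy after fixing and staining. Each value is the cleaved-PARP-positive fraction of nuclei relative to DMSO-treated wells, in %, so that 100 equals the control and higher values mean more apoptosis. Concentrations were fixed for each drug; these are the higher of two levels. No replicate spread is given; individual values may be noisy. Basal and induced levels differ widely between cell lines.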
An unselected part of the screen is shown.

Combination | WM115 | SK-MEL-2 | WM1716 | COLO 829 | COLO 792 | WM451Lu | WM3526
ENMD-2076 + lapatinib | 602 | 210 | 145 | 318 | 118 | 123 | 341
KU-55933 + tanespimycin | 219 | 400 | 112 | 164 | 93.0 | 253 | 187
tanespimycin + temozolomide | 833 | 76.4 | 474 | 74.4 | 159 | 200 | 104
lapatinib + tanespimycin | 411 | 97.3 | 94.9 | 156 | 101 | 133 | 115
KU-55933 + cisplatin | 45.5 | 85.9 | 97.0 | 125 | 73.7 | 130 | 150
tanespimycin + enzastaurin | 997 | 280 | 174 | 162 | 205 | 245 | 311
temozolomide + lapatinib | 140 | 78.8 | 137 | 137 | 146 | 179 | 131
temozolomide + docetaxel | 2120 | 2440 | 1240 | 234 | 602 | 2340 | 2350
lapatinib + tipifarnib | 323 | 151 | 49.3 | 139 | 92.4 | 96.9 | 209
lapatinib + KU-55933 | 220 | 96.6 | 39.7 | 130 | 128 | 92.7 | 142
tipifarnib + tanespimycin | 491 | 329 | 144 | 186 | 248 | 415 | 358
cisplatin + docetaxel | 1260 | 1160 | 476 | 536 | 2010 | 574 | 1300
temozolomide + ENMD-2076 | 236 | 39.1 | 477 | 203 | 102 | 201 | 145
docetaxel + ENMD-2076 | 708 | 1880 | 576 | 268 | 1020 | 210 | 489
temozolomide + cisplatin | 158 | 73.4 | 684 | 133 | 289 | 459 | 102
tanespimycin + cisplatin | 1700 | 150 | 141 | 127 | 58.9 | 90.9 | 177
docetaxel + tipifarnib | 661 | 1690 | 1750 | 428 | 1280 | 1040 | 3760
enzastaurin + ENMD-2076 | 116 | 762 | 299 | 122 | 93.8 | 247 | 240
docetaxel + KU-55933 | 475 | 1950 | 996 | 312 | 1160 | 596 | 1360
KU-55933 + enzastaurin | 45.4 | 333 | 247 | 147 | 118 | 588 | 111
lapatinib + cisplatin | 134 | 77.8 | 51.2 | 90.5 | 133 | 138 | 180
ENMD-2076 + KU-55933 | 62.4 | 160 | 106 | 139 | 60.3 | 159 | 316
docetaxel + enzastaurin | 945 | 1100 | 1220 | 159 | 397 | 317 | 2440
tipifarnib + KU-55933 | 251 | 159 | 87.2 | 111 | 110 | 110 | 102
tipifarnib + enzastaurin | 95.8 | 443 | 305 | 86.1 | 73.7 | 112 | 173
lapatinib + docetaxel | 1240 | 1180 | 351 | 537 | 1480 | 715 | 1220
ENMD-2076 + tipifarnib | 251 | 123 | 68.5 | 64.3 | 227 | 245 | 159
docetaxel + tanespimycin | 1050 | 1660 | 824 | 462 | 532 | 902 | 1330
cisplatin + enzastaurin | 81.4 | 105 | 168 | 159 | 45.6 | 61.4 | 113
tanespimycin + ENMD-2076 | 2490 | 83.8 | 68.1 | 95.6 | 172 | 1480 | 206
tipifarnib + cisplatin | 211 | 186 | 67.4 | 109 | 261 | 122 | 107
cisplatin + ENMD-2076 | 89.9 | 104 | 193 | 57.1 | 202 | 63.4 | 28.0

Once more, the final 3:

* tanespimycin + ENMD-2076 : WM115: 2490; SK-MEL-2: 83.8; WM1716: 68.1; COLO 829: 95.6; COLO 792: 172; WM451Lu: 1480; WM3526: 206
* tipifarnib + cisplatin : WM115: 211; SK-MEL-2: 186; WM1716: 67.4; COLO 829: 109; COLO 792: 261; WM451Lu: 122; WM3526: 107
* cisplatin + ENMD-2076 : WM115: 89.9; SK-MEL-2: 104; WM1716: 193; COLO 829: 57.1; COLO 792: 202; WM451Lu: 63.4; WM3526: 28.0

Source: doi:10.1371/journal.pone.0140310, primary screening data, rounded.